{"source": "PubChem BioAssay AID504784 (Drosophila RNAi Screening Center, 2011)", "test": "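Fly genes whose silencing alters how much lipid cells keep in droplets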 (primary screen)", "cell system": "Drosophila Kc167 embryonic cells", "reagents": "long dsRNA against Drosophila genes, about 250 ng dsRNA per well", "time to read-out": "4 days", "conditions": "cells fed 400 µM oleic acid bound to BSA", "detection": "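Cells imaged and segmented; ratio of lipid droplet area to nuclear area, log-transformed, then normalised as a B-score over the screen; higher means more stored lipid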", "reading the numbers": "droplet/nuclear area B-score: higher = more stored lipid (overstorage)", "note": "The deposit covers about 17,000 reagents; this is a random part of those with a known target gene and a result. 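Each column is one replicate's B-score; the combined score over replicates was not deposited, so single values may mislead.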 Further read-outs or replicates are left out here."}
{"Target gene":"pnt (GeneID 42757)","amplicon":"DRSC17028","droplet/nuclear area B-score, replicate 1":2.04}
{"Target gene":"pnt (GeneID 42757)","amplicon":"DRSC23204","droplet/nuclear area B-score, replicate 1":-3.99}
{"Target gene":"Blos1 (GeneID 246439)","amplicon":"DRSC05970","droplet/nuclear area B-score, replicate 1":-0.168}
{"Target gene":"CG42369 (GeneID 33894)","amplicon":"DRSC03244","droplet/nuclear area B-score, replicate 1":-3.38}
{"Target gene":"pins (GeneID 53569)","amplicon":"DRSC17043","droplet/nuclear area B-score, replicate 1":1.99}
{"Target gene":"CG8388 (GeneID 36763)","amplicon":"DRSC07157","droplet/nuclear area B-score, replicate 1":1.32}
{"Target gene":"CG13155 (GeneID 36346)","amplicon":"DRSC06280","droplet/nuclear area B-score, replicate 1":0.377}
{"Target gene":"CG9806 (GeneID 31994)","amplicon":"DRSC18444","droplet/nuclear area B-score, replicate 1":0.0346}
{"Target gene":"Got2 (GeneID 33373)","amplicon":"DRSC00643","droplet/nuclear area B-score, replicate 1":-0.1}
{"Target gene":"Cyp6a2 (GeneID 35587)","amplicon":"DRSC05014","droplet/nuclear area B-score, replicate 1":-0.284}
{"Target gene":"scaf6 (GeneID 3346235)","amplicon":"DRSC10075","droplet/nuclear area B-score, replicate 1":-0.721}
{"Target gene":"scaf6 (GeneID 3346235)","amplicon":"DRSC10676","droplet/nuclear area B-score, replicate 1":-0.502}
{"Target gene":"scaf6 (GeneID 3346235)","amplicon":"DRSC10678","droplet/nuclear area B-score, replicate 1":1.41}
{"Target gene":"sphinx2 (GeneID 38833)","amplicon":"DRSC22188","droplet/nuclear area B-score, replicate 1":-0.173}
{"Target gene":"Mur11Da (GeneID 318139)","amplicon":"DRSC18960","droplet/nuclear area B-score, replicate 1":0.111}
{"Target gene":"CG1824 (GeneID 32208)","amplicon":"DRSC19796","droplet/nuclear area B-score, replicate 1":1.07}
{"Target gene":"EMC8-9 (GeneID 37635)","amplicon":"DRSC04380","droplet/nuclear area B-score, replicate 1":1.05}
{"Target gene":"CG18549 (GeneID 41538)","amplicon":"DRSC15347","droplet/nuclear area B-score, replicate 1":-0.855}
{"Target gene":"Rcd2 (GeneID 40283)","amplicon":"DRSC11756","droplet/nuclear area B-score, replicate 1":-2.18}
{"Target gene":"Cftr (GeneID 42928)","amplicon":"DRSC15872","droplet/nuclear area B-score, replicate 1":1.07}
{"Target gene":"CG3356 (GeneID 37876)","amplicon":"DRSC04358","droplet/nuclear area B-score, replicate 1":-0.314}
{"Target gene":"Adat1 (GeneID 34787)","amplicon":"DRSC03479","droplet/nuclear area B-score, replicate 1":-0.387}
{"Target gene":"Agpat3 (GeneID 39820)","amplicon":"DRSC10445","droplet/nuclear area B-score, replicate 1":0.082}
{"Target gene":"CG5885 (GeneID 34314)","amplicon":"DRSC02910","droplet/nuclear area B-score, replicate 1":-0.574}
{"Target gene":"Ada2b (GeneID 40966)","amplicon":"DRSC16531","droplet/nuclear area B-score, replicate 1":-0.539}
{"Target gene":"HP4 (GeneID 38887)","amplicon":"DRSC10958","droplet/nuclear area B-score, replicate 1":-0.000199}
{"Target gene":"BHD (GeneID 38793)","amplicon":"DRSC11017","droplet/nuclear area B-score, replicate 1":-0.00326}
{"Target gene":"BHD (GeneID 38793)","amplicon":"DRSC22833","droplet/nuclear area B-score, replicate 1":1.41}
{"Target gene":"CG16739 (GeneID 37307)","amplicon":"DRSC06621","droplet/nuclear area B-score, replicate 1":4.12}
{"Target gene":"CG17110 (GeneID 42729)","amplicon":"DRSC15173","droplet/nuclear area B-score, replicate 1":-0.0995}
{"Target gene":"CG11406 (GeneID 37877)","amplicon":"DRSC04010","droplet/nuclear area B-score, replicate 1":-0.644}
{"Target gene":"CG11406 (GeneID 37877)","amplicon":"DRSC04108","droplet/nuclear area B-score, replicate 1":-1.29}
{"Target gene":"yrt (GeneID 41656)","amplicon":"DRSC16559","droplet/nuclear area B-score, replicate 1":2.26}
{"Target gene":"PGRP-SB1 (GeneID 39870)","amplicon":"DRSC11090","droplet/nuclear area B-score, replicate 1":0.843}
{"Target gene":"CG13667 (GeneID 38956)","amplicon":"DRSC10028","droplet/nuclear area B-score, replicate 1":-0.888}
{"Target gene":"bisc (GeneID 37443)","amplicon":"DRSC04083","droplet/nuclear area B-score, replicate 1":0.673}
{"Target gene":"CG12679 (GeneID 33031)","amplicon":"DRSC20493","droplet/nuclear area B-score, replicate 1":0.993}
{"Target gene":"Dbp21E2 (GeneID 33254)","amplicon":"DRSC00616","droplet/nuclear area B-score, replicate 1":0.113}
{"Target gene":"CG7848 (GeneID 36839)","amplicon":"DRSC07050","droplet/nuclear area B-score, replicate 1":-0.903}
{"Target gene":"foxo (GeneID 41709)","amplicon":"DRSC13017","droplet/nuclear area B-score, replicate 1":-0.31}
{"Target gene":"foxo (GeneID 41709)","amplicon":"DRSC15463","droplet/nuclear area B-score, replicate 1":0.702}
{"Target gene":"bru1 (GeneID 34648)","amplicon":"DRSC01234","droplet/nuclear area B-score, replicate 1":-3.08}
{"Target gene":"bru1 (GeneID 34648)","amplicon":"DRSC01236","droplet/nuclear area B-score, replicate 1":-0.406}
{"Target gene":"bru1 (GeneID 34648)","amplicon":"DRSC01237","droplet/nuclear area B-score, replicate 1":0.8}
{"Target gene":"bru1 (GeneID 34648)","amplicon":"DRSC01238","droplet/nuclear area B-score, replicate 1":-3.35}
{"Target gene":"bru1 (GeneID 34648)","amplicon":"DRSC03485","droplet/nuclear area B-score, replicate 1":-2.87}
{"Target gene":"CG12684 (GeneID 31390)","amplicon":"DRSC17875","droplet/nuclear area B-score, replicate 1":-0.0387}
{"Target gene":"His2Av (GeneID 43229)","amplicon":"DRSC16702","droplet/nuclear area B-score, replicate 1":0.715}
{"Target gene":"ari-1 (GeneID 32796)","amplicon":"DRSC20308","droplet/nuclear area B-score, replicate 1":-0.265}
{"Target gene":"ari-1 (GeneID 32796)","amplicon":"DRSC21603","droplet/nuclear area B-score, replicate 1":0.41}
{"Target gene":"CG33467 (GeneID 2768834)","amplicon":"DRSC05525","droplet/nuclear area B-score, replicate 1":-0.658}
{"Target gene":"CG33467 (GeneID 2768834)","amplicon":"DRSC22651","droplet/nuclear area B-score, replicate 1":0.67}

Not a retest: an excerpt of the list.
{"Target gene":"pins (GeneID 53569)","amplicon":"DRSC17043","droplet/nuclear area B-score, replicate 1":1.99}
{"Target gene":"CG8388 (GeneID 36763)","amplicon":"DRSC07157","droplet/nuclear area B-score, replicate 1":1.32}
